# Measurements: patent US20220064329A1
# No constants are given. Whether binding was seen depends on the method and setting. Some binding calls cover weakened binding; strength is not graded here.
# T1: TLT-1 37-mer stalk peptide (human)
# T1 sequence (peptide): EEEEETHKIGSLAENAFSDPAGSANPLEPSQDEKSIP
# Molecular target: T1, TLT-1 37-mer stalk peptide (human)
# Experiment: gel filtration of Fab and stalk peptide mixed at 1:2 molar ratio
binder,measurement,value
"Fab fragment with the VL and VH domains of mAb1076 (anti-TLT-1 Fab) (Fab, V domains shown) VH: EVQLVESGGGLVQPGGSLRLSCAASGFTFSRYWMTWVRQAPGKGLVWVGEINPDSSTINYAPSVKGRFTISRDNAKNTLYLQMNSLRAEDTAVYYCASGVFTSWGQGTLVTVSS VL: DIVMTQTPLSSPVTLGQPASISCRSSQSLVHRQGNTYFHWLQQRPGQPPRLLIYKVSNRFSGVPDRFSGSGAGTDFTLKISRVEAEDVGVYYCSQSTHVPYTFGQGTKLEIK",binding,binds
